{"source": "PubChem BioAssay AID743121 (NCATS, 2013)", "aim": "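Knock-downs that sensitise breast cancer cells to camptothecin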 (primary screen)", "cell system": "MDA-MB-231 cells, a human breast cancer line", "reagent": "single siRNA against human genes, 20 nM siRNA (0.8 pmol per well)", "time to read-out": "120 h (drug added 48 h after transfection, read 72 h later)", "conditions": "camptothecin 20 nM (about EC30) for 72 h; vehicle 0.1% DMSO in parallel plates", "measurement": "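Cell viability by ATP luminescence (CellTiter-Glo) as % of non-targeting siRNA wells, and the log2 ratio of viability without drug over viability with camptothecin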", "direction": "log2 vehicle/camptothecin viability: higher = stronger sensitisation to camptothecin", "call rule": "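Each gene scored by redundant siRNA activity (RSA) over its individual siRNA ratios; a gene is called active at p < 0.001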", "note": "This is one part, drawn at random, of about 26,000 deposited reagents. 167 of them (0.63%) were called active. 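Calls are per gene from RSA p-values that are not deposited; an individual active-marked siRNA can sensitise only weakly.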 Not all columns of the deposit are shown."}
{"gene": "BLMH", "PubChem SID": "SID164355341", "log2 vehicle/camptothecin viability": -0.331, "activity call": "inactive"}
{"gene": "BLMH", "PubChem SID": "SID164355342", "log2 vehicle/camptothecin viability": -0.0777, "activity call": "inactive"}
{"gene": "BLMH", "PubChem SID": "SID164355345", "log2 vehicle/camptothecin viability": -0.301, "activity call": "inactive"}
{"gene": "BLMH", "PubChem SID": "SID164355347", "log2 vehicle/camptothecin viability": -0.131, "activity call": "inactive"}
{"gene": "TAC1", "PubChem SID": "SID164390592", "log2 vehicle/camptothecin viability": -0.39, "activity call": "inactive"}
{"gene": "TAC1", "PubChem SID": "SID164390595", "log2 vehicle/camptothecin viability": -0.13, "activity call": "inactive"}
{"gene": "TAC1", "PubChem SID": "SID164390601", "log2 vehicle/camptothecin viability": -0.208, "activity call": "inactive"}
{"gene": "TAC1", "PubChem SID": "SID164390602", "log2 vehicle/camptothecin viability": -0.215, "activity call": "inactive"}
{"gene": "BAG4", "PubChem SID": "SID164404357", "log2 vehicle/camptothecin viability": -0.116, "activity call": "inactive"}
{"gene": "BAG4", "PubChem SID": "SID164404359", "log2 vehicle/camptothecin viability": -0.113, "activity call": "inactive"}
{"gene": "BAG4", "PubChem SID": "SID164404360", "log2 vehicle/camptothecin viability": -0.318, "activity call": "inactive"}
{"gene": "BAG4", "PubChem SID": "SID164404362", "log2 vehicle/camptothecin viability": -0.364, "activity call": "inactive"}
{"gene": "POU1F1", "PubChem SID": "SID164381757", "log2 vehicle/camptothecin viability": -0.0149, "activity call": "inactive"}
{"gene": "POU1F1", "PubChem SID": "SID164381760", "log2 vehicle/camptothecin viability": -0.076, "activity call": "inactive"}
{"gene": "POU1F1", "PubChem SID": "SID164381761", "log2 vehicle/camptothecin viability": 0.373, "activity call": "inactive"}
{"gene": "POU1F1", "PubChem SID": "SID164381763", "log2 vehicle/camptothecin viability": -0.166, "activity call": "inactive"}
{"gene": "EN2", "PubChem SID": "SID164363286", "log2 vehicle/camptothecin viability": -0.037, "activity call": "inactive"}
{"gene": "EN2", "PubChem SID": "SID164363288", "log2 vehicle/camptothecin viability": -0.139, "activity call": "inactive"}
{"gene": "EN2", "PubChem SID": "SID164363289", "log2 vehicle/camptothecin viability": 0.0475, "activity call": "inactive"}
{"gene": "EN2", "PubChem SID": "SID164363291", "log2 vehicle/camptothecin viability": -0.298, "activity call": "inactive"}
{"gene": "EFNA1", "PubChem SID": "SID164362754", "log2 vehicle/camptothecin viability": -0.145, "activity call": "inactive"}
{"gene": "EFNA1", "PubChem SID": "SID164362755", "log2 vehicle/camptothecin viability": -0.217, "activity call": "inactive"}
{"gene": "EFNA1", "PubChem SID": "SID164362757", "log2 vehicle/camptothecin viability": -0.0204, "activity call": "inactive"}
{"gene": "GGA3", "PubChem SID": "SID164446040", "log2 vehicle/camptothecin viability": -0.127, "activity call": "inactive"}
{"gene": "GGA3", "PubChem SID": "SID164446041", "log2 vehicle/camptothecin viability": 0.919, "activity call": "inactive"}
{"gene": "GGA3", "PubChem SID": "SID164446043", "log2 vehicle/camptothecin viability": 0.287, "activity call": "inactive"}
{"gene": "GGA3", "PubChem SID": "SID164446045", "log2 vehicle/camptothecin viability": -0.097, "activity call": "inactive"}
{"gene": "PRDM11", "PubChem SID": "SID164492122", "log2 vehicle/camptothecin viability": 0.0644, "activity call": "inactive"}
{"gene": "PRDM11", "PubChem SID": "SID164492124", "log2 vehicle/camptothecin viability": -0.796, "activity call": "inactive"}
{"gene": "PRDM11", "PubChem SID": "SID164492125", "log2 vehicle/camptothecin viability": -0.463, "activity call": "inactive"}
{"gene": "PRDM11", "PubChem SID": "SID164492126", "log2 vehicle/camptothecin viability": 0.339, "activity call": "inactive"}
{"gene": "TOMM34", "PubChem SID": "SID164414519", "log2 vehicle/camptothecin viability": -0.275, "activity call": "inactive"}
{"gene": "TOMM34", "PubChem SID": "SID164414520", "log2 vehicle/camptothecin viability": 0.21, "activity call": "inactive"}
{"gene": "TOMM34", "PubChem SID": "SID164414521", "log2 vehicle/camptothecin viability": -0.187, "activity call": "inactive"}
{"gene": "TOMM34", "PubChem SID": "SID164414523", "log2 vehicle/camptothecin viability": -0.578, "activity call": "inactive"}

As entered above.
For “log2 vehicle/camptothecin viability”, BLMH [SID164355347] is entered as -0.131
For “activity call”, TAC1 [SID164390592] is entered as inactive
